This is an account of results in paper PMC5454318.

Protein sequences, listed by entry. Tags and fused reporters are not part of them.
UniProt Q9UPU5: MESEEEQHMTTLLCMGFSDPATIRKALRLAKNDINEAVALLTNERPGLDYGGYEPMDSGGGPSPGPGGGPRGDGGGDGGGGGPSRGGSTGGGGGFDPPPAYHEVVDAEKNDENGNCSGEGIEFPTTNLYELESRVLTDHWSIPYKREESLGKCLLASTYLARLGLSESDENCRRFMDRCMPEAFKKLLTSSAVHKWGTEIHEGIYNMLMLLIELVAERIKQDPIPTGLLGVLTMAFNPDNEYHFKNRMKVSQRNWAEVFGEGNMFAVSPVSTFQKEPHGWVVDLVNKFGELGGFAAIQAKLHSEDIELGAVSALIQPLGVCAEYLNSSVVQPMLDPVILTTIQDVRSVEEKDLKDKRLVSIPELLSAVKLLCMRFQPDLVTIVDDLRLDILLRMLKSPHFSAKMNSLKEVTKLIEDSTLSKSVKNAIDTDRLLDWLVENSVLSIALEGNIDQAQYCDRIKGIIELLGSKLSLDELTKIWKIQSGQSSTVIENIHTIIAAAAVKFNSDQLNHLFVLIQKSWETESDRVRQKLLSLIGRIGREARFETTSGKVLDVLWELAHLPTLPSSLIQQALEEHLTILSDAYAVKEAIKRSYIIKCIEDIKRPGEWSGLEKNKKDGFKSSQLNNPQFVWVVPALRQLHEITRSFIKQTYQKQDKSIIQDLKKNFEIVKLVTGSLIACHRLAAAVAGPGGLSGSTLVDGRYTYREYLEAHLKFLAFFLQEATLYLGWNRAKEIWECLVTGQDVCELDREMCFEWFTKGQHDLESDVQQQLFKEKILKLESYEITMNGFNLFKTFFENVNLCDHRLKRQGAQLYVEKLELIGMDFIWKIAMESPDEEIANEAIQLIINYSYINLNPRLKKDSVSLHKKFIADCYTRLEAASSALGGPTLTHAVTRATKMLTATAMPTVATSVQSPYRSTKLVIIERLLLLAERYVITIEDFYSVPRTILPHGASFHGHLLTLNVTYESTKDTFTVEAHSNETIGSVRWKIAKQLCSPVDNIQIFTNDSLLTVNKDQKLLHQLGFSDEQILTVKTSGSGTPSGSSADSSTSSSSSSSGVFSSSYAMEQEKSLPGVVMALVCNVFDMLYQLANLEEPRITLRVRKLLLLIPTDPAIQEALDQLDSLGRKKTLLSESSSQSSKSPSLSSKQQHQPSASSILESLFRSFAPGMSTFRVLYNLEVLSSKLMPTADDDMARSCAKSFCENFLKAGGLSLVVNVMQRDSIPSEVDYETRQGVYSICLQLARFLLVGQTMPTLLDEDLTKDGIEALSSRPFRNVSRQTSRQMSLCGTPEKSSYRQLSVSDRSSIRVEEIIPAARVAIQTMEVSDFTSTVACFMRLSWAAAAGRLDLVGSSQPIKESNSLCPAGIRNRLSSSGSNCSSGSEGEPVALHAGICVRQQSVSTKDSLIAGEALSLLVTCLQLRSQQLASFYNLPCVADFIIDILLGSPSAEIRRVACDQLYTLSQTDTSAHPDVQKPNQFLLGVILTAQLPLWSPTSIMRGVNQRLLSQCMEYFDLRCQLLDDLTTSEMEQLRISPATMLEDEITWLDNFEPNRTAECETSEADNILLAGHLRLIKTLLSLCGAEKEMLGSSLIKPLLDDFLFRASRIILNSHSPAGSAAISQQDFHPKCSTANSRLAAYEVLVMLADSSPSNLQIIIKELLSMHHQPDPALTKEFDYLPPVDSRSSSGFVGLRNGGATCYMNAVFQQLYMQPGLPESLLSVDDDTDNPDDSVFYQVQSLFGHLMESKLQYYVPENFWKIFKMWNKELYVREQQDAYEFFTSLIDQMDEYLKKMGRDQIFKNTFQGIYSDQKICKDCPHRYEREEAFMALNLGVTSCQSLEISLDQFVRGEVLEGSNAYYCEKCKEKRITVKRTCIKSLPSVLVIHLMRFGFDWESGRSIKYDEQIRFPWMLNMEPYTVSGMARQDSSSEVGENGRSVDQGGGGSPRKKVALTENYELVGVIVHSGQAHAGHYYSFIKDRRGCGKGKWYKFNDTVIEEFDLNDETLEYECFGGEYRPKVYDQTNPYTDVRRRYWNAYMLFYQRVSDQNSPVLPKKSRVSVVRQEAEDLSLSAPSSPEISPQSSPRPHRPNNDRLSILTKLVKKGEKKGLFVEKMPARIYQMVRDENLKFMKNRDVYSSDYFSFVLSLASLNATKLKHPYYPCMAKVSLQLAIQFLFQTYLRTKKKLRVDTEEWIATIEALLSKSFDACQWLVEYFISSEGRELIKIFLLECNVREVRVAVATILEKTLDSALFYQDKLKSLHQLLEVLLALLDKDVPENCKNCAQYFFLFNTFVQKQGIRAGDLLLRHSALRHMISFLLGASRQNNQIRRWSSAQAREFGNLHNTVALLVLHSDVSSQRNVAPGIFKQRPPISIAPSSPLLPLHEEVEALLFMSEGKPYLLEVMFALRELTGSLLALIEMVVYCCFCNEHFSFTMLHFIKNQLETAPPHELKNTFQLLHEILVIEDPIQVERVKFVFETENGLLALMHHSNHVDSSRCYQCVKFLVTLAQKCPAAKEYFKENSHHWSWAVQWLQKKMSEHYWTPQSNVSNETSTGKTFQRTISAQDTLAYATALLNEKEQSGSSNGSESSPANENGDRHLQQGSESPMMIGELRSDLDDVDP
UniProt P12956: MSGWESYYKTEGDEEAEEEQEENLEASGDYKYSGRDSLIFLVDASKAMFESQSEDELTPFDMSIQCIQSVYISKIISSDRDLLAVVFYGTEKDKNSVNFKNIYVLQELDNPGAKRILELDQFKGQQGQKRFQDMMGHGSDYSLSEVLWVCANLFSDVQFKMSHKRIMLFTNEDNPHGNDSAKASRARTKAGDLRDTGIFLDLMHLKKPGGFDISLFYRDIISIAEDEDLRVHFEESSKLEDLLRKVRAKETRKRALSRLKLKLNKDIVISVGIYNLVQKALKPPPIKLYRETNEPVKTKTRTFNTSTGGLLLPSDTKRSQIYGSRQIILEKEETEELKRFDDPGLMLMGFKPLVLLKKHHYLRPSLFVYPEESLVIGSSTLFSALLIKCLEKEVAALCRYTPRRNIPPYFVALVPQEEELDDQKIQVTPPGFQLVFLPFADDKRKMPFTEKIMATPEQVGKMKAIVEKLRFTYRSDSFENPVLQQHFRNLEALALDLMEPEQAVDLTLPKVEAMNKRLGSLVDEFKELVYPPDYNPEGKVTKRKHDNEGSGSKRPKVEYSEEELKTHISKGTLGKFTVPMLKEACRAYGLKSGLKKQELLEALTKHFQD
UniProt Q16254: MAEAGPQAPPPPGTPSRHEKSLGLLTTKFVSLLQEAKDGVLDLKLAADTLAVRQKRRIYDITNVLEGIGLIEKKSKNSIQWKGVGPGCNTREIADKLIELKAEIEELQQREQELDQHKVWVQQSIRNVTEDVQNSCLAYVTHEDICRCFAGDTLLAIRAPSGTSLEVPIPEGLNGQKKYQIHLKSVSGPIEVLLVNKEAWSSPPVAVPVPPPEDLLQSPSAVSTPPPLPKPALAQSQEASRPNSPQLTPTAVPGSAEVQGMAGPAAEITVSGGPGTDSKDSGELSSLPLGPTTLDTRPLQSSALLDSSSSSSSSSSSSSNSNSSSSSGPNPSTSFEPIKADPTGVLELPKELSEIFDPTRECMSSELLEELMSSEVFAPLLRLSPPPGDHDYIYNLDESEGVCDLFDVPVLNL
UniProt P28482: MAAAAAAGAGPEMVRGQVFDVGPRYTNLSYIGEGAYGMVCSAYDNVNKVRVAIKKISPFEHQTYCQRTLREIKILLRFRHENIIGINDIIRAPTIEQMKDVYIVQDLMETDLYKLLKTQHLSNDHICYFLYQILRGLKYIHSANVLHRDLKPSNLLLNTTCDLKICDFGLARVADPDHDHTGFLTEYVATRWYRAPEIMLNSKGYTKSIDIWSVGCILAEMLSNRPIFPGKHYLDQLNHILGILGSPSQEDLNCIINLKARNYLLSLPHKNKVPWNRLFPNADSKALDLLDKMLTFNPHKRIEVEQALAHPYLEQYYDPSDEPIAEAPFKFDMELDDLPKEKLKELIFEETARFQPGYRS
UniProt Q09472: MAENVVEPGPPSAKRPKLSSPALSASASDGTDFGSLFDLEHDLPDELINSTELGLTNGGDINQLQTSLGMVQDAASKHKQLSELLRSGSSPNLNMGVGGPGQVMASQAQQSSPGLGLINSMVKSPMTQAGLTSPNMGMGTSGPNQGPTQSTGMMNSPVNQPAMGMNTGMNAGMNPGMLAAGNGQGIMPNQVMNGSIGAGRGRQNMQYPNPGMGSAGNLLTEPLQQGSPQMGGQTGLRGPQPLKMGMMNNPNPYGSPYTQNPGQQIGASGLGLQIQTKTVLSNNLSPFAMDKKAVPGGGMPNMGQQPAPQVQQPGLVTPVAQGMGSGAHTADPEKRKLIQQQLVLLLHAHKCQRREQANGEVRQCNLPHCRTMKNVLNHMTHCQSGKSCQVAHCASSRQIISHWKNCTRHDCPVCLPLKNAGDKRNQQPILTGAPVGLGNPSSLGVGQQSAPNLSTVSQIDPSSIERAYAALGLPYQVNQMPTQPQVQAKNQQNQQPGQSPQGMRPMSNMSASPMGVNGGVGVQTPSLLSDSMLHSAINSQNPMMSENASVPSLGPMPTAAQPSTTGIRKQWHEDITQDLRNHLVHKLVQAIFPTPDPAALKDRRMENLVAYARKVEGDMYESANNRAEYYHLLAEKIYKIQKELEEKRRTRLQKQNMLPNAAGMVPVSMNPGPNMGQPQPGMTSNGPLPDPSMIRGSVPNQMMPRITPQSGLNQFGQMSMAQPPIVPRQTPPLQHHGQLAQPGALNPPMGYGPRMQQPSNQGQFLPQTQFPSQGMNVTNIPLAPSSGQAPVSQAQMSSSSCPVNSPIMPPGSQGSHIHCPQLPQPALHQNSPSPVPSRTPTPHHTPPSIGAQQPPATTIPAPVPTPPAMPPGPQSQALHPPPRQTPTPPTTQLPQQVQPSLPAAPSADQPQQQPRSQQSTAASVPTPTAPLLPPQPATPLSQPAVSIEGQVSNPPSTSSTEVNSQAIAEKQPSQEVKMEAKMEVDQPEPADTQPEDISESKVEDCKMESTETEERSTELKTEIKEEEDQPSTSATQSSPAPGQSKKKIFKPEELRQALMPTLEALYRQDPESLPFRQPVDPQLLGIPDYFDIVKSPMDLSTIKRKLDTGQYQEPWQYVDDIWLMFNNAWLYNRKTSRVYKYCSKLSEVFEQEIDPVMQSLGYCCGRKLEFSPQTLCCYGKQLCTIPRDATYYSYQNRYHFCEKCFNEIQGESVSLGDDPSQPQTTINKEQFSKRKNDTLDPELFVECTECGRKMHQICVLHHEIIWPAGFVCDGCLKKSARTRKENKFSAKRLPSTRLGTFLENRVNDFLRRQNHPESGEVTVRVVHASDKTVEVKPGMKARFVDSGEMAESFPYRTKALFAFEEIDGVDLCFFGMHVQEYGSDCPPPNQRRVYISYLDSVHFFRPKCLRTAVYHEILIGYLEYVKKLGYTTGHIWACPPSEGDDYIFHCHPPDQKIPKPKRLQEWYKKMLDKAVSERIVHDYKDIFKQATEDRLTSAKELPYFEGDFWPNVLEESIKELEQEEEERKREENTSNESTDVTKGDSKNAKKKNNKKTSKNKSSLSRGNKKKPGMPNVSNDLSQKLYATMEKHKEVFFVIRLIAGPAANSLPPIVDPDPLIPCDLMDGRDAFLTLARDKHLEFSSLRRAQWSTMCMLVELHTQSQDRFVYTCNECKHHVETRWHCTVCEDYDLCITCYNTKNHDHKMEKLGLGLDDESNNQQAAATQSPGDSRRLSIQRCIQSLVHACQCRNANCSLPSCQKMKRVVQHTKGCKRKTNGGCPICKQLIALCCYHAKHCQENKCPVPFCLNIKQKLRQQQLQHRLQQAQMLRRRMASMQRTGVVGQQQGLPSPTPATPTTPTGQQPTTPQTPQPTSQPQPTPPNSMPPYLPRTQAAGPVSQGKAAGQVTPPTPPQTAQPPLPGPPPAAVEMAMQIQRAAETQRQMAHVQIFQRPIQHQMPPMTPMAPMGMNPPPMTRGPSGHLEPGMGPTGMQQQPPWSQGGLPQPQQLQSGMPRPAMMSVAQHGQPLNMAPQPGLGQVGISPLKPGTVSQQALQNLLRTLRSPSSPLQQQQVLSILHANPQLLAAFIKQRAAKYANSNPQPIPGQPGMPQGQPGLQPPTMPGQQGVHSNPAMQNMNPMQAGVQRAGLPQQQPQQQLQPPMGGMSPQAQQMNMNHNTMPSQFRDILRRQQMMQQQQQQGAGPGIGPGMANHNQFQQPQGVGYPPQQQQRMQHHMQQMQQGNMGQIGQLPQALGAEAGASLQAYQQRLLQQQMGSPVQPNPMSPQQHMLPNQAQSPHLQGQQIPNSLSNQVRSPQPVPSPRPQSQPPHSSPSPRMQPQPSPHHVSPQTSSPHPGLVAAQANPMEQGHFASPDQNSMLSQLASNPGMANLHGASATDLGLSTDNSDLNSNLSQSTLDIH

These are yes or no findings as the source states them, for the method shown. For part of these data: Binding seen in cells or lysates may run through a third protein. Some binding calls cover weakened binding; strength is not graded here.

Assay [1] deals with ubiquitin-specific peptidase 24 (human (endogenous in H1299, A549, U2OS, HeLa)) (UniProt Q9UPU5). Nature of the assay: co-IP; A549 cells in interphase and in mitosis; immunoprecipitation with anti-USP24 antibody, western blotting for USP24, CDK1, cyclin B1 and actin. On the technique in general: A western blot detects proteins with antibodies after separation by electrophoresis.

The target is the same in assay [2]. Nature of the assay: co-IP; A549 and U2OS cells, endogenous proteins; immunoprecipitation with anti-USP24 antibody, western blotting.
Assay [3] shares this target. Nature of the assay: co-IP; H1299 cells, endogenous proteins; immunoprecipitation with anti-USP24 and anti-ERK antibodies, western blotting with anti-USP24, anti-Erk and anti-p-Erk.
Assay [4] has the same target. Nature of the assay: co-IP; A549 cells with or without HA-Ku70 expression; immunoprecipitation with anti-USP24 antibody, western blotting.
For assay [5], the target named is Ku70 (human (endogenous in A549, U2OS)) (UniProt P12956). Nature of the assay: co-IP; U2OS cells overexpressing HA-p300; immunoprecipitation with a Ku70 antibody, western blotting.
For assay [6], the target named is ubiquitin-specific peptidase 24 (human (endogenous in H1299, A549, U2OS, HeLa)) (UniProt Q9UPU5). Nature of the assay: co-IP; U2OS cells overexpressing HA-p300; immunoprecipitation with a USP24 antibody, western blotting.
The target of assay [7] is USP24 (yeast two-hybrid fusion) (UniProt Q9UPU5). Nature of the assay: two-hybrid; yeast two-hybrid assay of Ku70 and USP24, including truncated domains of each.
Assay [8] addresses cdc20 (human (endogenous in A549)) (UniProt Q12834). Nature of the assay: co-IP; A549 cells treated with nocodazole; immunoprecipitation with anti-CDC20, western blotting.
Assay [9] has as its target T1, securin (human (endogenous in HeLa)) (UniProt O95997).
T1 sequence: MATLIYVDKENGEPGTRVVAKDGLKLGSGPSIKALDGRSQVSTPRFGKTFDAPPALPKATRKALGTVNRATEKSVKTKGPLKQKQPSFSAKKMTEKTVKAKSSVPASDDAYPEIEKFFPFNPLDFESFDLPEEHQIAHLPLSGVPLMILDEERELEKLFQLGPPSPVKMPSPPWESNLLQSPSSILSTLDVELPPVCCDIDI
Nature of the assay: co-IP; cells treated with nocodazole, immunoprecipitation with anti-securin; HeLa cells with or without nocodazole, immunoprecipitation with anti-USP24 antibody; western blotting.

In assay [10] the target is Ku70 (human (endogenous in A549, U2OS)) (UniProt P12956). Nature of the assay: co-IP; A549 cells, endogenous proteins; immunoprecipitation with anti-Ku70 antibody, western blotting.
In assay [11] the target is Bax (human (endogenous in H1299)) (UniProt Q07812). Nature of the assay: co-IP; H1299 cells, endogenous proteins; immunoprecipitation with anti-USP24 and with anti-Bax antibodies, western blotting.

As for “CDK1/cyclin B (from UniProt P06493 1-297; P14635 1-433) (complex)”, the binding entry in assay [1] was “binds”.
Regarding E2F4 (from UniProt Q16254 1-413), the binding entry in [2] is given as “binds”.
Take “Erk1 (from UniProt P27361 1-379) (enzyme)”: the binding entry in assay [3] is listed as “binds”.
Same read-out and setting: the result for “Erk2 (from UniProt P28482 1-360) (enzyme)” reads “binds”.
For the substance HA-Ku70 (from UniProt P12956 1-609), the binding result in [4] was “binds”.
As for “HA-p300 (from UniProt Q09472 1-2414) (enzyme)”, the binding entry in [5] and in assay [6] was “binds” throughout.
Take “Ku70 (yeast two-hybrid fusion) (from UniProt P12956 1-609)”: the binding result in [7] is “binds”.
In the case of “USP24 phosphorylated at Ser1616, Ser2047 and Ser2604 (from UniProt Q9UPU5 1-2620) (enzyme)”, the binding result in assay [8] was “binds”.
As for “p-Erk1 (from UniProt P27361 1-379) (enzyme)”, the binding entry in assay [3] is given as “binds”.
On the same count and under the same terms, the result for “p-Erk2 (from UniProt P28482 1-360) (enzyme)” reads “binds”.
Consider “ubiquitin-specific peptidase 24 (from UniProt Q9UPU5 1-2620) (enzyme)”, for which the binding entry in assay [9], in assay [8], in [10] and in assay [11] was “binds” each time.
